According to paper PMC6702725:
These are yes or no findings as the source states them, for the method shown. In cells and extracts the contact can be indirect. A result given as binding can be weak or reduced; the word gives no strength. Sequences can lack the tags named with a protein.

T1: FLAG-tagged phosphatidylinositol-5-phosphate 4-kinase type-2 gamma (PIP4KIIγ) (human) (UniProt Q8TBX8)
T1 sequence: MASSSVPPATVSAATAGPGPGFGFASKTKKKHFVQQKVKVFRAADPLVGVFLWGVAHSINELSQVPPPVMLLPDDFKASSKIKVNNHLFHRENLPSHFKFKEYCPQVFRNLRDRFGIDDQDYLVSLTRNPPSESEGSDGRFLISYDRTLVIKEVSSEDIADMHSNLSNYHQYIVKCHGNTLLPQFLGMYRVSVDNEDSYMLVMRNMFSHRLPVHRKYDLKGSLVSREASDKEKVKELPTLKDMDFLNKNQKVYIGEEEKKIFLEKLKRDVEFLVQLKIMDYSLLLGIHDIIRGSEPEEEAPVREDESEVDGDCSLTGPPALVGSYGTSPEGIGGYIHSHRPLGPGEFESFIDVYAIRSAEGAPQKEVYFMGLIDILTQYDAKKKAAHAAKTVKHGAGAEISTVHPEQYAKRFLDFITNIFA


Tests used:
[1] = molecular target: T1, FLAG-tagged phosphatidylinositol-5-phosphate 4-kinase type-2 gamma (PIP4KIIγ) (human); experiment: co-IP; CGL2 cells stably expressing FLAG-PIP4KIIγ (or empty vector Neo) lysed in RIPA buffer 30 min on ice; IP with anti-FLAG, or with anti-α-tubulin (mouse IgG as control); immunoblot
[2] = molecular target: α-tubulin (human (endogenous in CGL2)); experiment: as above

| binding [1] | binding [2] | Molecule |
| --- | --- | --- |
| binds | – | α-tubulin (human (endogenous in CGL2)) |
| – | binds | FLAG-tagged phosphatidylinositol-5-phosphate 4-kinase type-2 gamma (PIP4KIIγ) (enzyme, UniProt Q8TBX8-1 1-421) MASSSVPPATVSAATAGPGPGFGFASKTKKKHFVQQKVKVFRAADPLVGVFLWGVAHSINELSQVPPPVMLLPDDFKASSKIKVNNHLFHRENLPSHFKFKEYCPQVFRNLRDRFGIDDQDYLVSLTRNPPSESEGSDGRFLISYDRTLVIKEVSSEDIADMHSNLSNYHQYIVKCHGNTLLPQFLGMYRVSVDNEDSYMLVMRNMFSHRLPVHRKYDLKGSLVSREASDKEKVKELPTLKDMDFLNKNQKVYIGEEEKKIFLEKLKRDVEFLVQLKIMDYSLLLGIHDIIRGSEPEEEAPVREDESEVDGDCSLTGPPALVGSYGTSPEGIGGYIHSHRPLGPGEFESFIDVYAIRSAEGAPQKEVYFMGLIDILTQYDAKKKAAHAAKTVKHGAGAEISTVHPEQYAKRFLDFITNIFA |
